Reference: publication PMC4039144
Results are given in words; binding and its absence hold for the method and conditions named. Binding seen in cells or lysates may run through a third protein. Some entries that bind do so weakly or less than the wild type.

Chains of the proteins cited; added tags and fusions are not shown.
UniProt P40763: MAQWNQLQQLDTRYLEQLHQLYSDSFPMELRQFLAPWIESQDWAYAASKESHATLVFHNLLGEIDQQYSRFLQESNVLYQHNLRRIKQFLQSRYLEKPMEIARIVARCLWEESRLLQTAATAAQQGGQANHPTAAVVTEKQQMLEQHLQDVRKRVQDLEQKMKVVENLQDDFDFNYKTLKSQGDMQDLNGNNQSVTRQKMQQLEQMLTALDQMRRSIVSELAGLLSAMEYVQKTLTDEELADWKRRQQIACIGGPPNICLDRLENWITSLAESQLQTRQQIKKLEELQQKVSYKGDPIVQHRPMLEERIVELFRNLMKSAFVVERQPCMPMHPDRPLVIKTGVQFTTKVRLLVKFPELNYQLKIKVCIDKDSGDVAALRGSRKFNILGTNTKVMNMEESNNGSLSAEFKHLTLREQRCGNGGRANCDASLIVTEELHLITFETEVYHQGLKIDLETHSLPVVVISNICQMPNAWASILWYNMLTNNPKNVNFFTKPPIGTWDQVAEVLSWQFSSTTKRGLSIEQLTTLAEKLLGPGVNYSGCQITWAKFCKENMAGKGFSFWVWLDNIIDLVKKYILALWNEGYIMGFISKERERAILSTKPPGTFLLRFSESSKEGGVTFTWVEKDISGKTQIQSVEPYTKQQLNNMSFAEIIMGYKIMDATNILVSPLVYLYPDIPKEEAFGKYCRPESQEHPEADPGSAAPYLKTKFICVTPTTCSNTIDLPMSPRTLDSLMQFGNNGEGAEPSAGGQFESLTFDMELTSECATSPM
UniProt P14902: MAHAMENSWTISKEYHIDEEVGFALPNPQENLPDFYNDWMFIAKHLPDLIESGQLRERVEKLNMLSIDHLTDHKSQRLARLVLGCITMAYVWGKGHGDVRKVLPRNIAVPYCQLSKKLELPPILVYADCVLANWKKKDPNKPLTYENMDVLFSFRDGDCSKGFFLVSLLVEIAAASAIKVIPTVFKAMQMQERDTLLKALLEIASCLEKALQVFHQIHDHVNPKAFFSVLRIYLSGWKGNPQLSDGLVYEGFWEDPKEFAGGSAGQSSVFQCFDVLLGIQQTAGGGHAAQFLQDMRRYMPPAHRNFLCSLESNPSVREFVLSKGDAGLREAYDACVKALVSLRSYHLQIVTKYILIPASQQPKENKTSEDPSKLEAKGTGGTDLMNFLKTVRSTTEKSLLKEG

Target: signal transducer and activator of transcription 3 (STAT3) (human (endogenous in primary AML blasts)) (UniProt P40763)
Experiment: co-IP; lysates (2 mg/sample) of primary AML blasts after 100 ng/ml IFN-γ for 16 hours, or without IFN-γ; Co-IP buffer with 137 mM NaCl, 1% NP-40, 20 mM Tris-HCl pH 8, 10% glycerol; anti-STAT3 or anti-IDO1 antibodies on Protein A resin, 4 hours at 4°C; immunoblot with the other antibody; normal rabbit IgG as negative control

binding: binds
Substance: Indoleamine 2,3-dioxygenase 1 (IDO1) (from UniProt P14902 1-403) (enzyme)
